This is one part of the list.
Columns and labels:
Assay in all cases: log2 fold change, soluble protein after heating vs DMSO (PISA); higher = thermal stabilisation; K562 lysate, 10 uM; active = over 0.2 and 3.5 SD of the protein, either way, in both replicates (recomputed)
erlotinib = compound: C#Cc1cccc(Nc2ncnc3cc(OCCOC)c(OCCOC)cc23)c1 [erlotinib]
Summary of the method: (§1)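 Log-two fold change in thermal stability relative to solvent controls is reported from duplicates. For each sample, crude K562 extract from dounce-homogenised pellets in PBS pH 7.4 with 1 mM MgCl2, at 1 mg/mL protein, was treated with 10 μM compound for 30 min. Aliquots heated for 3 min across 48°C-58°C were pooled, brought to 0.5% NP-40 at 4°C and cleared at 21,000xg for 90 min. The supernatant was quantified by TMTpro 16plex LC-MS/MS with channel sums equalised.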

Amino acid sequences for entries named in this document (tags omitted). A change or cut given only in a name is not applied to a line headed by its entry.
UniProt P67775, whole entry, looked up: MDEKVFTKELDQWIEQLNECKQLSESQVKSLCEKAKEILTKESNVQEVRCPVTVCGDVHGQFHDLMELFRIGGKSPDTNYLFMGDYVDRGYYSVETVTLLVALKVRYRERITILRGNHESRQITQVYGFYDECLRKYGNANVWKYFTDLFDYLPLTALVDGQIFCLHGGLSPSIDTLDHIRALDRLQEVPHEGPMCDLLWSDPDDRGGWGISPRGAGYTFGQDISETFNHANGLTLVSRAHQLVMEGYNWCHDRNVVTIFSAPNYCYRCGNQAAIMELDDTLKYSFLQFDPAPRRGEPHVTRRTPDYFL
UniProt P30041: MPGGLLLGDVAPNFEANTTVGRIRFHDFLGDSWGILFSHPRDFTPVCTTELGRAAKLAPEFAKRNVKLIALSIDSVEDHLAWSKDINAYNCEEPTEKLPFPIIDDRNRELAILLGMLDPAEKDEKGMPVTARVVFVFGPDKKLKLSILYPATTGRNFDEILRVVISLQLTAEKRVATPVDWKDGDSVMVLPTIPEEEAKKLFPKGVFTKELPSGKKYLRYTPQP
UniProt Q96C90: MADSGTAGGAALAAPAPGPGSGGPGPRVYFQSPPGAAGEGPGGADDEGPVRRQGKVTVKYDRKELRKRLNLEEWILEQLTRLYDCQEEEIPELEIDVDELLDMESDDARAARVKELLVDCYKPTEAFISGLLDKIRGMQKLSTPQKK
UniProt O75400: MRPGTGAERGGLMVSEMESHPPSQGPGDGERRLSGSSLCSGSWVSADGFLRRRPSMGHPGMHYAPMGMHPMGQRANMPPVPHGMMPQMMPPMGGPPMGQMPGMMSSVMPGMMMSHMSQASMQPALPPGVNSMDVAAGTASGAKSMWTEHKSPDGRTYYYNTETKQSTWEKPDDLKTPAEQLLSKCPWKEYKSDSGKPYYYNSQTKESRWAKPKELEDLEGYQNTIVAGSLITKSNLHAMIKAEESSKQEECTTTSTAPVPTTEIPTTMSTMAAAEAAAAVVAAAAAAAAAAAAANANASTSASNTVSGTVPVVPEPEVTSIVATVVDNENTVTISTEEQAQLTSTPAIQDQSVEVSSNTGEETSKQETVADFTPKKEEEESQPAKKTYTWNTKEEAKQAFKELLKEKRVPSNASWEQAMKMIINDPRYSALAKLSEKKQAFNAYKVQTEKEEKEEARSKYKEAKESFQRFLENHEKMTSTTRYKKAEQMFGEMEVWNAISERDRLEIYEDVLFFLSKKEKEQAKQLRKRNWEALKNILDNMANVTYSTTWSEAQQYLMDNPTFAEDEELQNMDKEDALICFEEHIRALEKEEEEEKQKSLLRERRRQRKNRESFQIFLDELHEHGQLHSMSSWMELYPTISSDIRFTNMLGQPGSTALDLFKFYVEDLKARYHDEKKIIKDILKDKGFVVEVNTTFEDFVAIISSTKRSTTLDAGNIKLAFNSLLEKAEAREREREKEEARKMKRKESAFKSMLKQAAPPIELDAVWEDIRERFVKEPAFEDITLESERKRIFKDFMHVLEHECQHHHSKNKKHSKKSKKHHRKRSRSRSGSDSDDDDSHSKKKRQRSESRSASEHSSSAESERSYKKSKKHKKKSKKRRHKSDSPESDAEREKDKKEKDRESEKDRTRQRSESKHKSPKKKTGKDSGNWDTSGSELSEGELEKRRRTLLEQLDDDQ
UniProt Q66LE6: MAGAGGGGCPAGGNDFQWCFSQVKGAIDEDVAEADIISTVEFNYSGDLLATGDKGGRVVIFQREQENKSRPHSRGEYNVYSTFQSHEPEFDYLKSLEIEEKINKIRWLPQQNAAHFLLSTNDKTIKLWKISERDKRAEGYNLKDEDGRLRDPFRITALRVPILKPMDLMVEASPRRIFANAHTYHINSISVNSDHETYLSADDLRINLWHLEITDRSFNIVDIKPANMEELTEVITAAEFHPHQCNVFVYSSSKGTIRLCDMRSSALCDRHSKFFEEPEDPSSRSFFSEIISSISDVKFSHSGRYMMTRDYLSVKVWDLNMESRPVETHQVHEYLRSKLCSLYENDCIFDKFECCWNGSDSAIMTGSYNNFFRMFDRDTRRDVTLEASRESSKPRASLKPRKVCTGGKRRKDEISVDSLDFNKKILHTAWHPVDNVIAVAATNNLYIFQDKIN
UniProt Q15173: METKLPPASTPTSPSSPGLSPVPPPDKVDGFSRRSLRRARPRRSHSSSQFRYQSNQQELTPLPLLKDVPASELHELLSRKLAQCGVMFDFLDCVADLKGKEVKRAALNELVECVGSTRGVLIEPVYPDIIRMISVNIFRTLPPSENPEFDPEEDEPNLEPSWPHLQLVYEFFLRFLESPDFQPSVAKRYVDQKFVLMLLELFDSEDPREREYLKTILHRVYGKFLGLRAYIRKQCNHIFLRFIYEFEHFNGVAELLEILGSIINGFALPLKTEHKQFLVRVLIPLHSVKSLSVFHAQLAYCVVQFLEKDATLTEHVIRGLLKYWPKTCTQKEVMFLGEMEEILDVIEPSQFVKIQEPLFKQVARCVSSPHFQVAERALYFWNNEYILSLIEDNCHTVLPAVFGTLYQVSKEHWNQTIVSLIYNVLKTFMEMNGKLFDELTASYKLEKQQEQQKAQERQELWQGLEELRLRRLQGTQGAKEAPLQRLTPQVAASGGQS
UniProt Q9ULR3: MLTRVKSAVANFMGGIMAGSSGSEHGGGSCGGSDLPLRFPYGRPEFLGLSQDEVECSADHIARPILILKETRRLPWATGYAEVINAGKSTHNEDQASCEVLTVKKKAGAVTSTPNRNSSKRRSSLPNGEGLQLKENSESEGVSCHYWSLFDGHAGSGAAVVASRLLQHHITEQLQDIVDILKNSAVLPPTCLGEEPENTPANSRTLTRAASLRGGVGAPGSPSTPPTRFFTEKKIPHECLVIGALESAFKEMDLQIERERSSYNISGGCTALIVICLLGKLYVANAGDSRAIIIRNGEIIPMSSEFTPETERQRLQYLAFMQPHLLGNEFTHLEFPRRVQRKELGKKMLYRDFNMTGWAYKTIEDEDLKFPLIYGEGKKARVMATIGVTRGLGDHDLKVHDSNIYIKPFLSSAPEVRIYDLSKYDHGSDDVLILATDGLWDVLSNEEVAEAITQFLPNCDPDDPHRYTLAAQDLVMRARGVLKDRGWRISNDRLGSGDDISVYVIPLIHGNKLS
UniProt Q13356: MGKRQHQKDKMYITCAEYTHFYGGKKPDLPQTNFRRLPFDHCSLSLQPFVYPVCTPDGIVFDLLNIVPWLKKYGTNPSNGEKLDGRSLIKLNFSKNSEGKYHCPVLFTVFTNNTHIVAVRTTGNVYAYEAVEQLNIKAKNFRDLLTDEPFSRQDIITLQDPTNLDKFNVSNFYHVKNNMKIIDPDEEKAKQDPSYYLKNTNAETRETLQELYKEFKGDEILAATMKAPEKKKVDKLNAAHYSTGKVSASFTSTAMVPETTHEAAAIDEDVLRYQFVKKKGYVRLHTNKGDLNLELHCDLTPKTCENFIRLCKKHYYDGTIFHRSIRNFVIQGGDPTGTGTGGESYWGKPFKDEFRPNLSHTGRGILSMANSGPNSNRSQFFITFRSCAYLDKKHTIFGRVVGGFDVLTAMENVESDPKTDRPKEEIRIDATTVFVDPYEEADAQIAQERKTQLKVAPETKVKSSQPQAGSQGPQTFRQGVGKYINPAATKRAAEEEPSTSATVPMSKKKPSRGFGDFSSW
UniProt O43741: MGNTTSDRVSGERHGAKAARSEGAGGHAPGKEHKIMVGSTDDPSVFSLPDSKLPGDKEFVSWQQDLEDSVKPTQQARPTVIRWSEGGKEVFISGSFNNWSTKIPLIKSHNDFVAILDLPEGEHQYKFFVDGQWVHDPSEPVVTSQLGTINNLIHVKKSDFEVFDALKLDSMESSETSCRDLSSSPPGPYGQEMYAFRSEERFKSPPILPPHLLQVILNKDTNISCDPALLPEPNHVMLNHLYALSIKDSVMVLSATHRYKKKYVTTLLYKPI
UniProt O75170: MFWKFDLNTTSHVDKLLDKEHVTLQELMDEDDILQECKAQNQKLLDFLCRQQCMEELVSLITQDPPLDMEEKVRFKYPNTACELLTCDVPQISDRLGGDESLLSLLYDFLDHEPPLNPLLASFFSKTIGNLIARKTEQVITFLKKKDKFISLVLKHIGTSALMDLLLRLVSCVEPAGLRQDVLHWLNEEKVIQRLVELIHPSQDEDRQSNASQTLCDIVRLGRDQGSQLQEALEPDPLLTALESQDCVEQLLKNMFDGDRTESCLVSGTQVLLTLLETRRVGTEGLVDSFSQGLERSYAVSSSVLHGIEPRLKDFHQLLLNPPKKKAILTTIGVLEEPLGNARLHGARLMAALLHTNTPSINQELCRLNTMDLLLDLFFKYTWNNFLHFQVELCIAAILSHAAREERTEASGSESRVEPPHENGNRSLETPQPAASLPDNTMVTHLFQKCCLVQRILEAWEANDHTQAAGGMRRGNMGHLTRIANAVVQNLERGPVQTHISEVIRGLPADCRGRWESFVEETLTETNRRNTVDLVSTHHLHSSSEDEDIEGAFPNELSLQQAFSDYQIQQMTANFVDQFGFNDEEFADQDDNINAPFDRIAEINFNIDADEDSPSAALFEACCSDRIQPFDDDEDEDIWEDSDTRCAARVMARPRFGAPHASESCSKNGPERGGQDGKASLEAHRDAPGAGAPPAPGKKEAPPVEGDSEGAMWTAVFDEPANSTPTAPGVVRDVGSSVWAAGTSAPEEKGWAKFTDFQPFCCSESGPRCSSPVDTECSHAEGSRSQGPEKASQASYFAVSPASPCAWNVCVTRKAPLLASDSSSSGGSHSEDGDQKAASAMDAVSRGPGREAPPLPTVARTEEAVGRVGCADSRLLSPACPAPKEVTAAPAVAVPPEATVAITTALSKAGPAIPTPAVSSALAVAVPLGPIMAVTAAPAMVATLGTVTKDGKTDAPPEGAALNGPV
UniProt P14314: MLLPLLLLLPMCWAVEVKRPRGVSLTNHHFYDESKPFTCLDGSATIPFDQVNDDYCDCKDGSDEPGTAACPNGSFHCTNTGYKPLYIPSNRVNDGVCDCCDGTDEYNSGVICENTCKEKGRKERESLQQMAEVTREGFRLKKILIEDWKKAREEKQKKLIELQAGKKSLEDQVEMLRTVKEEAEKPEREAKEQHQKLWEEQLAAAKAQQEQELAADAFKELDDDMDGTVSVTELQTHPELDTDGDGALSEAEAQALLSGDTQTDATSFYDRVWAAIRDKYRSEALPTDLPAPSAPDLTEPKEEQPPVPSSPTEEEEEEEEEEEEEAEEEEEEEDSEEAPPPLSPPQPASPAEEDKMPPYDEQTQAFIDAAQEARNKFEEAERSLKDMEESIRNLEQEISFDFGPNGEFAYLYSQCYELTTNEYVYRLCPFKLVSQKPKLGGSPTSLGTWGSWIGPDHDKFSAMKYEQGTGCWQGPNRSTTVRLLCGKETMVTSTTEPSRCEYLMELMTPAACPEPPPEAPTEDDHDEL
UniProt O60237: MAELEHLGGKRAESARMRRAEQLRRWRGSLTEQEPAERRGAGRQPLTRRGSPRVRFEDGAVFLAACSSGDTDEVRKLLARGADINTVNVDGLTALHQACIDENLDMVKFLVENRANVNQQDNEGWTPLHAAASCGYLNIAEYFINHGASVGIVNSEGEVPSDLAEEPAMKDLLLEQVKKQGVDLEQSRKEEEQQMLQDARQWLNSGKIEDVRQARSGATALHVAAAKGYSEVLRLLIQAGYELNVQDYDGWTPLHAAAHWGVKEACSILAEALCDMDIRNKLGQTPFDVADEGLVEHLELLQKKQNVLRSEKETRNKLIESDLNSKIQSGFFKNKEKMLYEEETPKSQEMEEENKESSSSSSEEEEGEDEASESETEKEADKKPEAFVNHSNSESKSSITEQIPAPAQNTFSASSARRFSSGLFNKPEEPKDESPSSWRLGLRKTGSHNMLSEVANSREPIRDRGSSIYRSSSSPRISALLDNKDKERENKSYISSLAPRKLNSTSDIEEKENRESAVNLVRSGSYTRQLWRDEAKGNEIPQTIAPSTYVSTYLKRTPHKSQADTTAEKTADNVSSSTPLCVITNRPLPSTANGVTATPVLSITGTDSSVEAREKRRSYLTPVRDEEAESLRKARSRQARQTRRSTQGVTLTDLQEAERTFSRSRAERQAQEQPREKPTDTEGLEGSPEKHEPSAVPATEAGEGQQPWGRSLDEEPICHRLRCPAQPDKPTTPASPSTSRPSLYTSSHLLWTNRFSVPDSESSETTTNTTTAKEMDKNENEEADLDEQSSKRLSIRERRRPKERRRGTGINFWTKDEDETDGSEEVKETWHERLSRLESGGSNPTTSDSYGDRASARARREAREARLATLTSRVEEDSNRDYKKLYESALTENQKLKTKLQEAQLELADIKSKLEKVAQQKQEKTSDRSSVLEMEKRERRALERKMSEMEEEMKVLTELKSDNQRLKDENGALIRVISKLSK

[1] = compound: C/C(=N\NC(=O)C1=CC(=CC=C1)S(=O)(=O)N2CCOCC2)/C3=C(C=CC(=C3)Cl)O
Summary of the method: as §1

[2] = compound: C1=CC(=CC=C1C2=NC3=C(N2)C=C(C=C3)C(=O)N)OC4=CC=C(C=C4)Cl
Summary of the method: as §1

[3] = compound: C1=CC2=C(C=CC(=C2)/C=C\3/C(=O)NC(=NCC4=CC=CS4)S3)N=C1
Summary of the method: as §1

[4] = compound: C1=CC2=NC=CN=C2C=C1/C=C/3\C(=O)NC(=O)S3
Summary of the method: as §1

[5] = compound: C1=CC=C(C=C1)C2=NC(=C(N2)C3=CC=NC=C3)C4=CC(=C(C=C4)Cl)O
Summary of the method: as §1

[6] = compound: C1=CC=C2C(=C1)C3=NNC4=CC=CC(=C43)C2=O
Summary of the method: as §1

[7] = compound: C1CCN(C1)C(=O)NC2=CC=CC(=C2)NC3=NC=C(C(=N3)NCCC4=CN=CN4)Br
Summary of the method: as §1

[8] = compound: C1CN(CCC1(CC2=CC=C(C=C2)Cl)N)C3=NC=NC4=C3C=CN4
Summary of the method: as §1

IRAK-1-4 Inhibitor I = compound: C1COCCN1CCN2C3=CC=CC=C3N=C2NC(=O)C4=CC(=CC=C4)[N+](=O)[O-] [IRAK-1-4 Inhibitor I]
Summary of the method: as §1

ibrutinib = compound: C=CC(=O)N1CCC[C@@H](n2nc(-c3ccc(Oc4ccccc4)cc3)c3c(N)ncnc32)C1 [ibrutinib]
Summary of the method: as §1

[9] = compound: CC(=O)c1cnc2ccc(-c3cc(Cl)c(O)c(Cl)c3)nc2c1N[C@H]1CC[C@H](CN(C)C)CC1
Summary of the method: as §1

ralimetinib = compound: CC(C)(C)Cn1c(N)nc2ccc(-c3[nH]c(C(C)(C)C)nc3-c3ccc(F)cc3)nc21 [ralimetinib]
Summary of the method: as §1

[10] = compound: CC(C)(O)CC(=O)NCCn1ccc2ncnc(Nc3ccc(Oc4cccc(C(F)(F)F)c4)c(Cl)c3)c21
Summary of the method: as §1

[11] = compound: CC(C)C1=C2N=C(C=C(N2N=C1)NCC3=CC=CC=C3)NCCCCCCN
Summary of the method: as §1

[12] = compound: CC1=C(C(CC(=O)N1)C2=CC=C(C=C2)C(F)(F)F)C(=O)NC3=C(C=C4C(=C3)C=NN4)F
Summary of the method: as §1

[13] = compound: CC1=C(C2=C(C=C1)C(=O)C3=CC=CC=C3N2CCCN)C
Summary of the method: as §1

[14] = compound: CC1=C(C=C(C=C1)NC(=O)C2=CC(=CC=C2)C(C)(C)C#N)NC3=CC4=C(C=C3)N=CN(C4=O)C
Summary of the method: as §1

[15] = compound: CC1=C(C=C(C=C1)NC(=O)C2=CC(=CC=C2)N(C)C)NC(=O)C3=CC=C(C=C3)O
Summary of the method: as §1

[16] = compound: CC1=CC=C(C=C1)SC2=C3C=C(SC3=CN=C2)C(=O)N
Summary of the method: as §1

Measured: log2 fold change

PPM1B (UniProt O75688)
inactive: erlotinib -0.013 | [1] 0.009 | [2] -0.006 | [3] 0.019 | [4] 0.001 | [5] 0.004 | [6] -0.02 | [7] 0.007 | [8] -0.015 | IRAK-1-4 Inhibitor I 0.015 | ibrutinib -0.014 | [9] -0.025 | ralimetinib -0.022 | [10] -0.01 | [11] 0.007 | [12] -0.012 | [13] -0.069 | [14] 0.034 | [15] -0.002 | [16] -0.014

PPP2CA (UniProt P67775)
inactive: erlotinib -0.088 | [1] 0.134 | [2] -0.057 | [3] -0.045 | [4] -0.007 | [5] 0.064 | [6] 0.016 | [7] 0.106 | [8] -0.027 | IRAK-1-4 Inhibitor I -0.041 | ibrutinib 0.042 | [9] 0.009 | ralimetinib 0.007 | [10] 0.083 | [11] -0.012 | [12] -0.017 | [13] -0.034 | [14] -0.047 | [15] -0.003 | [16] 0.036

PRDX6 (UniProt P30041)
inactive: erlotinib -0.035 | [1] 0.015 | [2] -0.001 | [3] -0.023 | [4] 0.014 | [5] -0.004 | [6] 0.01 | [7] 0.01 | [8] 0.004 | IRAK-1-4 Inhibitor I -0.002 | ibrutinib 0.025 | [9] 0.025 | ralimetinib -0.015 | [10] -0.001 | [11] -0.009 | [12] -0.02 | [13] -0.006 | [14] 0 | [15] -0.006 | [16] 0.008

PPP1R14B (UniProt Q96C90)
inactive: erlotinib 0.017 | [1] -0.043 | [2] -0.004 | [3] 0.022 | [4] -0.093 | [5] -0.046 | [6] -0.012 | [7] 0.078 | [8] 0.011 | IRAK-1-4 Inhibitor I -0.042 | ibrutinib 0.047 | [9] 0.033 | ralimetinib 0.059 | [10] -0.058 | [11] -0.008 | [12] 0.136 | [13] 0.022 | [14] 0.028 | [15] -0.05 | [16] -0.008

PREP (UniProt P48147)
inactive: erlotinib 0.026 | [1] -0.016 | [2] 0.028 | [3] -0.007 | [4] -0.002 | [5] 0.002 | [6] -0.002 | [7] -0.024 | [8] 0.014 | IRAK-1-4 Inhibitor I -0.007 | ibrutinib 0.019 | [9] 0 | ralimetinib 0.015 | [10] 0.004 | [11] -0.008 | [12] 0.011 | [13] -0.009 | [14] -0.006 | [15] 0.006 | [16] 0.011

PRPF40A (UniProt O75400)
inactive: erlotinib -0.011 | [1] -0.053 | [2] 0.06 | [3] 0.001 | [4] -0.043 | [5] -0.133 | [6] -0.034 | [7] -0.011 | [8] 0.011 | IRAK-1-4 Inhibitor I 0.017 | ibrutinib 0.083 | [9] 0.003 | ralimetinib -0.016 | [10] -0.002 | [11] -0.008 | [12] 0.013 | [13] 0.005 | [14] -0.053 | [15] -0.017 | [16] 0.019

PPP2R2D (UniProt Q66LE6)
inactive: erlotinib 0.019 | [1] -0.043 | [2] 0.053 | [3] 0.059 | [4] -0.042 | [5] -0.09 | [6] -0.159 | IRAK-1-4 Inhibitor I 0 | ibrutinib -0.115 | [9] 0.084 | ralimetinib 0.044 | [10] 0.021 | [11] -0.008 | [12] -0.089 | [13] 0.033 | [14] 0.021 | [15] -0.002 | [16] -0.077

PPP2R5B (UniProt Q15173)
inactive: erlotinib -0.026 | [1] 0.038 | [2] 0.056 | [3] -0.106 | [4] 0.123 | [5] 0 | [6] 0.052 | [7] -0.051 | [8] -0.042 | IRAK-1-4 Inhibitor I 0.016 | ibrutinib 0.042 | [9] 0.033 | ralimetinib 0 | [10] -0.046 | [11] -0.055 | [13] 0.009 | [14] 0.026 | [15] 0.08 | [16] -0.053

2 successive records out of the list so far, for reference:
PRPF40A (UniProt O75400)
inactive: erlotinib -0.011 | [1] -0.053 | [2] 0.06 | [3] 0.001 | [4] -0.043 | [5] -0.133 | [6] -0.034 | [7] -0.011 | [8] 0.011 | IRAK-1-4 Inhibitor I 0.017 | ibrutinib 0.083 | [9] 0.003 | ralimetinib -0.016 | [10] -0.002 | [11] -0.008 | [12] 0.013 | [13] 0.005 | [14] -0.053 | [15] -0.017 | [16] 0.019

PPP2R2D (UniProt Q66LE6)
inactive: erlotinib 0.019 | [1] -0.043 | [2] 0.053 | [3] 0.059 | [4] -0.042 | [5] -0.09 | [6] -0.159 | IRAK-1-4 Inhibitor I 0 | ibrutinib -0.115 | [9] 0.084 | ralimetinib 0.044 | [10] 0.021 | [11] -0.008 | [12] -0.089 | [13] 0.033 | [14] 0.021 | [15] -0.002 | [16] -0.077

Remaining list, next part

PPM1H (UniProt Q9ULR3)
active: [2] 0.25
inactive: erlotinib -0.048 | [1] -0.045 | [3] 0.021 | [4] -0.049 | [5] 0.009 | [6] 0.011 | [7] -0.039 | [8] 0.101 | IRAK-1-4 Inhibitor I 0.037 | ibrutinib 0.058 | [9] -0.032 | ralimetinib -0.008 | [10] -0.035 | [11] 0.019 | [13] -0.028 | [14] 0.048 | [15] -0.007 | [16] 0.02

PPIL2 (UniProt Q13356)
inactive: erlotinib -0.03 | [1] 0.02 | [2] 0.007 | [3] 0.021 | [4] -0.002 | [5] 0.039 | [6] -0.045 | [7] -0.036 | [8] 0.003 | IRAK-1-4 Inhibitor I -0.016 | ibrutinib -0.002 | [9] -0.003 | ralimetinib 0.02 | [10] 0.025 | [11] 0.046 | [12] 0.011 | [13] -0.017 | [14] 0.033 | [15] 0.003 | [16] 0.005

PRKAB2 (UniProt O43741)
inactive: erlotinib -0.032 | [1] -0.165 | [2] 0.096 | [3] -0.041 | [4] 0.031 | [5] 0.039 | [6] 0.153 | [7] 0.196 | [8] 0.042 | IRAK-1-4 Inhibitor I 0.24 | ibrutinib -0.041 | [9] -0.018 | ralimetinib 0.093 | [10] -0.129 | [11] -0.025 | [12] 0.086 | [13] -0.066 | [14] -0.082 | [15] 0.035 | [16] -0.008

PPP6R2 isoform 5 (UniProt O75170)
inactive: erlotinib 0.025 | [1] -0.011 | [2] -0.061 | [3] -0.021 | [4] 0.006 | [5] -0.017 | [6] 0.024 | [7] -0.027 | [8] 0.059 | IRAK-1-4 Inhibitor I -0.005 | ibrutinib 0.028 | [9] 0.026 | ralimetinib 0.07 | [10] -0.027 | [11] -0.022 | [12] 0.019 | [13] 0.032 | [14] 0.017 | [15] 0.007 | [16] 0.013

PPIP5K1 (UniProt Q6PFW1)
inactive: erlotinib -0.05 | [1] 0.006 | [2] 0.004 | [3] -0.021 | [4] -0.04 | [5] -0.017 | [6] 0.006 | [7] -0.016 | [8] 0.038 | IRAK-1-4 Inhibitor I 0.008 | ibrutinib 0.014 | [9] -0.008 | ralimetinib 0.037 | [10] 0.011 | [11] 0.046 | [12] 0.024 | [13] -0.072 | [14] -0.03 | [15] 0.027 | [16] 0.011

PRKD3 (UniProt O94806)
inactive: erlotinib -0.041 | [1] 0.105 | [2] -0.123 | [3] -0.145 | [4] 0.039 | [5] 0.115 | [6] 0.123 | [7] -0.163 | [8] -0.115 | IRAK-1-4 Inhibitor I 0.053 | ibrutinib -0.112 | [9] 0.054 | ralimetinib -0.164 | [10] -0.052 | [11] 0.03 | [12] 0.039 | [14] -0.068 | [15] -0.022 | [16] -0.077

PRKCSH (UniProt P14314)
inactive: erlotinib -0.027 | [1] 0.013 | [2] 0.01 | [3] -0.012 | [4] -0.012 | [5] 0.023 | [6] 0.07 | [7] 0.027 | [8] -0.027 | IRAK-1-4 Inhibitor I 0.005 | ibrutinib -0.008 | [9] 0.01 | ralimetinib 0.007 | [10] 0.019 | [11] -0.026 | [12] -0.004 | [13] 0.047 | [14] -0.057 | [15] 0.001 | [16] 0

PPP1R12B isoform 6 (UniProt O60237)
inactive: erlotinib -0.081 | [1] 0.025 | [2] -0.103 | [3] -0.08 | [4] 0.057 | [5] -0.053 | [6] -0.07 | [7] -0.123 | [8] 0.037 | IRAK-1-4 Inhibitor I 0.153 | ibrutinib 0.019 | [9] -0.112 | ralimetinib 0.01 | [10] -0.251 | [11] 0.095 | [13] 0.106 | [14] 0.142 | [15] -0.012 | [16] -0.194
